Values joined by “and” are separate entries in the source; they are usually repeats but may differ in a detail not shown here. Equal entries are not always repeated. This is one part of the list. Further columns of the screen follow, without active or inactive calls. The list favours compounds with an active or inconclusive main result. Words in brackets tell the shape of the fitted curve; partial curves, single points and poor fits give uncertain potencies.
Assay: qHTS Assay for Modulators of Lamin A Splicing
Conditions: HeLa LMNA splicing GFP/RFP minigene ratio, 48 h
Procedure, shortened: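 S3 HeLa stable clones carrying a lamin A-EGFP splicing minigene plus DsRed2 were seeded at 600 cells/well in Opti-MEM with 2% FBS, pin-dosed and incubated 48 h at 37°C. Acumen cytometry (488 nm) gave the GFP/RFP total-intensity ratio.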

[1] = measured here: GFP splicing reporter channel
[2] = measured here: RFP viability control channel

SMILES: O=C(c1cc(F)ccc1F)C1CCCN(Cc2ccc3nonc3c2)C1 (centres undefined)
- AC50 [1]: 0.126 µM [falling, full curve, poor fit]

SMILES: CCN(CC)S(=O)(=O)c1ccc(NN=C(C#N)C#N)cc1
- AC50 [1]: 14.1 µM [rising, single point]
- AC50 [2]: 31.6 µM [rising, single point]

SMILES: Cc1ccccc1-n1c(C)nc2ccccc2c1=O
- AC50 [1]: 1.26 µM [falling, partial curve]
- AC50 [2]: 0.316 µM [falling, partial curve]

SMILES: Cc1ccc(Cn2c(C)c3cnn(CC(=O)N4CCC5(CC4)OCCO5)c(=O)c3c2C)cc1
- AC50 [2]: 11.2 µM [rising, partial curve]

SMILES: CCC(=NCCc1c[nH]c2ccccc12)c1c(O)n(-c2ccc(C)cc2)c(=O)[nH]c1=O
- AC50 [1]: 2.82 µM [rising, partial curve, poor fit]
- AC50 [2]: 20 µM [rising, partial curve]

SMILES: O=Cc1cn(Cc2cccc([N+](=O)[O-])c2)c2ccccc12
- AC50 [1]: 31.6 µM [rising, single point]
- AC50 [2]: 35.5 µM [rising, single point]

SMILES: CCC(C)NC(=O)c1c(N)n(Cc2ccc3c(c2)OCO3)c2nc3ccccc3nc12 (centres undefined)
- AC50 [2]: 11.2 µM [rising, partial curve]

SMILES: CN[C@@H]1C[C@@H](c2ccc(Cl)c(Cl)c2)c2ccccc21
- AC50 [1]: 11.2 µM [falling, partial curve]
- AC50 [2]: 11.2 µM [falling, partial curve]

SMILES: Cc1ccccc1OP(N)(=O)Oc1ccccc1C
- AC50 [1]: 22.4 µM [falling, single point]

SMILES: COc1ccccc1NC(=O)N(Cc1ccc2c(c1)OCO2)C1CCN(Cc2ccccc2)CC1
- AC50 [1]: 7.94 µM [falling, partial curve]
- AC50 [2]: 7.08 µM [falling, partial curve]

SMILES: CCN1C[C@]2(COC)CC[C@H](O)[C@@]34[C@@H]5C[C@H]6[C@@H](OC)[C@H]5[C@](O)(C[C@@H]6OC)[C@@](O)([C@@H](OC)[C@H]23)[C@@H]14
- AC50 [1]: 3.16 µM [falling, single point]
- AC50 [2]: 1.78 µM [falling, single point]

SMILES: CCOc1ccc(-c2cc(C(=O)N3CCN(c4cccc(C(F)(F)F)c4)CC3)c3ccccc3n2)cc1
- AC50 [2]: 20 µM [rising, single point]

SMILES: O=C1/C(=C\c2ccc([N+](=O)[O-])cc2)N2CCC1CC2
- AC50 [1]: 11.2 µM [rising, partial curve]
- AC50 [2]: 11.2 µM [rising, partial curve]

SMILES: CCCCOc1ccc(CNC(=O)c2cc3n(n2)CCCN(Cc2ccc(C)cc2)C3=O)cc1
- AC50 [2]: 14.1 µM [rising, partial curve]

SMILES: CNCC[C@@H](Oc1ccc(C(F)(F)F)cc1)c1ccccc1
- AC50 [1]: 15.8 µM [falling, partial curve]
- AC50 [2]: 25.1 µM [falling, partial curve, poor fit]

SMILES: c1cc2c(cc1CCNC1C3CC4CC(C3)CC1C4)OCO2 (centres undefined)
- AC50 [2]: 35.5 µM [rising, single point]

SMILES: Cc1ccc(-c2nc3ccc(C)cn3c2CC(=O)N(C)C)cc1
- AC50 [1]: 5.62 µM [rising, single point]
- AC50 [2]: 5.62 µM [rising, single point]

SMILES: Cn1cc(C(=O)N2CCC3(CC2)OCCO3)c2c3ccccc3n(C)c2c1=O
- AC50 [1]: 1.26 µM [rising, partial curve, poor fit]

SMILES: COc1ccc(C(=O)Nc2ccccc2C(=O)NC(C(=O)NCc2ccco2)C(C)C)cc1 (centres undefined)
- AC50 [2]: 5.62 µM [rising, single point]

SMILES: C[C@H]1CCC/C=C/C2C[C@H](O)CC2[C@H](O)/C=C/C(=O)O1 (some centres undefined)
- AC50 [2]: 0.224 µM [rising, full curve]

SMILES: CCc1ccc(-n2c(SC(CC)C(=O)N(CC)CC)nc3n[nH]c(C)c3c2=N)cc1 (centres undefined)
- AC50 [2]: 0.0631 µM [falling, full curve, poor fit]

SMILES: C[C@H](N)CN1CCc2ccc(Br)cc21
- AC50 [1]: 25.1 µM [falling, single point]
- AC50 [2]: 3.55 µM [falling, single point]

SMILES: CCCCCCCSc1cc(OC)c(CCNC)cc1OC
- AC50 [2]: 0.224 µM [falling, full curve, poor fit]

SMILES: Cc1cc(C)[n+](C2C3CC4CC(C3)CC2C4)o1 (centres undefined)
- AC50 [1]: 31.6 µM [rising, single point]
- AC50 [2]: 35.5 µM [rising, single point]

SMILES: CC(=O)C1=C(O)C2C3c4c[nH]c5cccc(c45)CC3C(C)(C)N2C1=O (centres undefined)
- AC50 [1]: 2.82 µM [rising, single point]
- AC50 [2]: 3.55 µM [rising, single point]

SMILES: CCOC(=O)C1C2c3ccccc3O[C@@]1(C)N=C1SCC(=O)N12 (some centres undefined)
- AC50 [2]: 0.00501 µM [falling, full curve, poor fit]

SMILES: CN(C)[C@@H]1C(=O)C(C(N)=O)=C(O)[C@]2(O)C(=O)C3=C(O)c4c(O)ccc(Cl)c4[C@](C)(O)[C@H]3C[C@@H]12
- AC50 [1]: 0.00447 µM [falling, full curve]
- AC50 [2]: 0.282 µM [falling, single point]

SMILES: c1cc2n(c1)-c1c(ccc3c1OCO3)CNC2c1ccc2c(c1)OCO2 (centres undefined)
- AC50 [2]: 14.1 µM [rising, single point]

SMILES: C=C(C)[C@H]1CN[C@H](C(=O)O)[C@H]1CC(=O)O
- AC50 [1]: 0.355 µM [falling, single point]
- AC50 [2]: 5.01 µM [rising, full curve, poor fit] and 631 nM [falling, full curve, poor fit]

SMILES: O=C(O)C1C2CCC(O2)C1C(=O)NC1CCCCC1 (centres undefined)
- AC50 [1]: 31.6 µM [rising, single point]
- AC50 [2]: 35.5 µM [rising, single point]

SMILES: CCOCCCNC(=O)c1c[nH]c2ccc(S(=O)(=O)N(C)c3ccc(Cl)cc3F)cc2c1=O
- AC50 [2]: 0.02 µM [rising, full curve, poor fit]

SMILES: COc1ccc(Nc2cc(C)c3cc(NC(=O)c4ccccc4Cl)ccc3n2)cc1
- AC50 [2]: 25.1 µM [rising, single point]

SMILES: CCC(=Nc1cc(OC)ccc1OC)c1c(O)[nH]c(=O)[nH]c1=O
- AC50 [1]: 3.55 µM [rising, partial curve]
- AC50 [2]: 35.5 µM [falling, single point]

SMILES: CCNC(=O)[C@H]1O[C@@H](n2cnc3c(N)ncnc32)[C@H](O)[C@H]1O
- AC50 [1]: 0.2 µM [falling, full curve, poor fit]

SMILES: CC1(C)CC(=O)C(C=NCCN2CCN(C(=O)Cc3ccc(Cl)cc3)CC2)=C(O)C1
- AC50 [2]: 1.58 µM [rising, partial curve]

SMILES: O=C(NC1CCCCC1)C1CCN(C(=O)c2ccc(-c3ccccc3)cc2)CC1
- AC50 [1]: 1.78 µM [falling, partial curve, poor fit]
- AC50 [2]: 4.47 µM [falling, partial curve, poor fit]

SMILES: CCCCn1c(O)c(C(CC)=NCCc2ccccc2)c(=O)[nH]c1=O
- AC50 [1]: 15.8 µM [rising, partial curve]
- AC50 [2]: 20 µM [rising, partial curve]

SMILES: CC(C)N(C(=O)CCl)c1ccccc1
- AC50 [1]: 20 µM [falling, partial curve]
- AC50 [2]: 25.1 µM [falling, single point]

SMILES: NC(CCCP(=O)(O)O)C(=O)O (centres undefined)
- AC50 [1]: 0.0501 µM [falling, full curve, poor fit]
- AC50 [2]: 0.000794 µM [falling, full curve, poor fit]

SMILES: Cc1cccc(NP(=O)(Oc2ccccc2F)Oc2ccccc2F)c1
- AC50 [2]: 15.8 µM [rising, single point]

SMILES: CN1Cc2c(ccc3c2OCO3)[C@@H]2[C@@H](O)Cc3cc4c(cc3[C@@H]21)OCO4
- AC50 [1]: 0.562 µM [falling, full curve]
- AC50 [2]: 0.891 µM [falling, full curve]

SMILES: O=C(Nc1ccc2c(c1)OCCO2)c1cccn(Cc2cccc(F)c2)c1=O
- AC50 [1]: 10 µM [falling, partial curve]

SMILES: Cc1nonc1OCCNc1ccc([N+](=O)[O-])c2cccnc12
- AC50 [1]: 17.8 µM [rising, single point]
- AC50 [2]: 35.5 µM [rising, single point]

SMILES: O=c1[nH]c(=O)n(Cc2ccc(F)cc2)c(O)c1C=Nc1ccc(Cl)cc1
- AC50 [2]: 35.5 µM [falling, single point]

SMILES: O=[N+]([O-])c1ccc(Sc2nc3ccccc3o2)c([N+](=O)[O-])c1
- AC50 [1]: 35.5 µM [falling, single point]
- AC50 [2]: 35.5 µM [falling, single point]

SMILES: CCc1ccccc1NC(=O)c1cccn(Cc2ccccc2F)c1=O
- AC50 [1]: 0.282 µM [falling, full curve, poor fit]
- AC50 [2]: 0.158 µM [falling, full curve, poor fit]

SMILES: CCC1(c2ccccc2)C(=O)NC(=O)N(C)C1=O (centres undefined)
- AC50 [1]: 0.00398 µM [falling, full curve, poor fit]
- AC50 [2]: 0.447 µM [falling, single point]

SMILES: CCCCCn1c(N)c(C(=O)NCc2cccs2)c2nc3ccccc3nc21
- AC50 [1]: 28.2 µM [falling, single point]
- AC50 [2]: 35.5 µM [falling, single point]

SMILES: Nc1c(C(=O)NCCc2ccccc2)c2nc3ccccc3nc2n1CCN1CCOCC1
- AC50 [1]: 25.1 µM [falling, single point]
- AC50 [2]: 14.1 µM [falling, partial curve]

SMILES: CCOC(=O)c1cc(CC)sc1/N=C/C1C(=O)NC(=S)NC1=O
- AC50 [1]: 0.0126 µM [rising, full curve, poor fit]
- AC50 [2]: 0.794 µM [rising, partial curve]

From PubChem BioAssay AID1487 (National Center for Advancing Translational Sciences (NCATS), 2009)
